PubChem BioAssay AID743121, NCATS | 2013

- Test: 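Genes whose silencing strengthens cell killing by camptothecin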 (primary screen)
- Cell system: MDA-MB-231 cells, a human breast cancer line
- Knock-down reagent: single siRNA against human genes, 20 nM siRNA (0.8 pmol per well)
- Duration: 120 h (drug added 48 h after transfection, read 72 h later)
- Treatment: camptothecin 20 nM (about EC30) for 72 h; vehicle 0.1% DMSO in parallel plates
- Read-out: 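CellTiter-Glo ATP signal, scaled to control siRNA as percent viability; sensitisation given as log2 of untreated divided by camptothecin-treated viability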
- Reading the numbers: log2 vehicle/camptothecin viability: higher = stronger sensitisation to camptothecin
- Rule for the call: 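Each gene scored by redundant siRNA activity (RSA) over its individual siRNA ratios; a gene is called active at p < 0.001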
Here is an unselected part of about 26,000 reagents tested. Over the whole deposit, 167 (0.63%) are marked active. 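Calls are per gene from RSA p-values that are not deposited; an individual active-marked siRNA can sensitise only weakly.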 A number with no mark means an inactive call. The numbers tell different reagents against one gene apart. Further read-outs or replicates are left out here.

The first 3 records, ahead of the listing:
Target gene	siRNA no.	log2 vehicle/camptothecin viability
EPHA10	1	0.0418
EPHA10	2	-0.544
EPHA10	3	-0.219

Results, from the start:
Target gene	siRNA no.	log2 vehicle/camptothecin viability
EPHA10	1	0.0418
EPHA10	2	-0.544
EPHA10	3	-0.219
EPHA10	4	-0.295
EPHA10	5	0.176
EPHA10	6	0.412
EPHA10	7	-0.026
EPHA10	8	0.208
GRXCR1	1	-0.159
GRXCR1	2	-0.24
GRXCR1	3	-0.386
GRXCR1	4	0.858
KAT7	1	0.0384
KAT7	2	-0.325
KAT7	3	-0.691
KAT7	4	0.953
RYR1	1	-0.399
RYR1	2	-0.0993
RYR1	3	0.0585
RYR1	4	0.0244
TGFB1	1	-0.131
TGFB1	2	0.0991
TGFB1	3	-0.0934
TGFB1	4	-0.0706
AGXT2	1	0.0864
AGXT2	2	-0.396
AGXT2	3	-0.228
SERPINE2	1	-0.0255
SERPINE2	2	-0.527
SERPINE2	3	0.516
SERPINE2	4	0.393
